Experimental data: PubChem BioAssay AID1053208 (Peter MacCallum Cancer Centre, 2014)

Assay: 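Synthetic lethal interactions between gene loss and doxorubicin in osteosarcoma cells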 (primary screen)
Cell system: mouse osteosarcoma cells, early-passage culture from an engineered mouse model of fibroblastic bone tumour
Reagents: siRNA pool against mouse genes, 40 nM
Time to read-out: about 120 h (48 h before drug, then 72 h with drug)
Treatment: doxorubicin 100 nM for 72 h, roughly 30-40% inhibitory dose
Read-out: 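Viability read as ATP luminescence after 72 h of 100 nM doxorubicin or none, duplicate wells averaged, scaled to non-targeting siRNA, then expressed as robust z-scores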
Reading the numbers: viability z-score with doxorubicin: higher = more viable cells under doxorubicin; viability z-score without drug: higher = more viable cells with knock-down alone
Rule for the call: 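Called active if knock-down leaves viability unchanged without drug (z within -2 to 2) but lowers it with doxorubicin (z at or under -2)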
The deposit covers about 17,000 reagents; shown is a random part of them. 788 of all reagents (4.7%) were called active. 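Calls rest on z-score classes alone; an extra cut-off of viability at most 70% of control was not applied to them.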 A number with no mark means an inactive call. Not all columns of the deposit are shown. Reagent sequences are not shown.

Srp54a (signal recognition particle 54A) → combined z-score class = no change with or without drug; viability z-score with doxorubicin = -0.67; viability z-score without drug = -1.69
Naa16 (N(alpha)-acetyltransferase 16, NatA auxiliary subunit) → combined z-score class = no change with or without drug; viability z-score with doxorubicin = -0.67; viability z-score without drug = 1.52
Rptn (repetin) → combined z-score class = no change with or without drug; viability z-score with doxorubicin = 1.8; viability z-score without drug = 0.34
Sppl2a (signal peptide peptidase like 2A) → combined z-score class = no change with or without drug; viability z-score with doxorubicin = -1.46; viability z-score without drug = -0.34
Irf8 (interferon regulatory factor 8) → combined z-score class = no change with or without drug; viability z-score with doxorubicin = -0.22; viability z-score without drug = -1.18
Or1r1 (olfactory receptor family 1 subfamily JRmember 1) → combined z-score class = no change with or without drug; viability z-score with doxorubicin = 1.24; viability z-score without drug = 0.84
Or8g33 (olfactory receptor family 8 subfamily G member 33) → combined z-score class = no change with or without drug; viability z-score with doxorubicin = -1.35; viability z-score without drug = -0.84
Nab2 (Ngfi-A binding protein 2) → combined z-score class = no change with or without drug; viability z-score with doxorubicin = 1.35; viability z-score without drug = 0.51
Chpf (chondroitin polymerizing factor) → combined z-score class = no change with or without drug; viability z-score with doxorubicin = -1.57; viability z-score without drug = 0.51
Zfp367 (zinc finger protein 367) → combined z-score class = no change with or without drug; viability z-score with doxorubicin = -0.67; viability z-score without drug = -0.51
Sorl1 (sortilin-related receptor, LDLR class A repeats-containing) → combined z-score class = no change with or without drug; viability z-score with doxorubicin = -1.24; viability z-score without drug = -0.34
Clca1 (chloride channel accessory 1) → combined z-score class = low cell count with doxorubicin only (active); viability z-score with doxorubicin = -2.47; viability z-score without drug = -1.52
9130221H12Rik (RIKEN cDNA 9130221H12 gene) → combined z-score class = no change with or without drug; viability z-score with doxorubicin = 0.67; viability z-score without drug = 0.84
Plet1 (placenta expressed transcript 1) → combined z-score class = no change with or without drug; viability z-score with doxorubicin = 1.46; viability z-score without drug = 0.84
Nelfb (negative elongation factor complex member B) → combined z-score class = no change with or without drug; viability z-score with doxorubicin = 0; viability z-score without drug = -0.67
Pwp1 (PWP1 homolog, endonuclein) → combined z-score class = no change with or without drug; viability z-score with doxorubicin = -1.91; viability z-score without drug = 0.34
Flot2 (flotillin 2) → combined z-score class = no change with or without drug; viability z-score with doxorubicin = 1.35; viability z-score without drug = 1.18
Zc3hc1 (zinc finger, C3HC type 1) → combined z-score class = high cell count with doxorubicin only; viability z-score with doxorubicin = 4.16; viability z-score without drug = 1.01

Records listed so far called active (1):
Clca1 (chloride channel accessory 1) → combined z-score class = low cell count with doxorubicin only (active); viability z-score with doxorubicin = -2.47; viability z-score without drug = -1.52

Continued.
Rnf115 (ring finger protein 115) → combined z-score class = no change with or without drug; viability z-score with doxorubicin = 0.67; viability z-score without drug = 1.85
Ndufa7 (NADH:ubiquinone oxidoreductase subunit A7) → combined z-score class = low cell count with doxorubicin only (active); viability z-score with doxorubicin = -2.02; viability z-score without drug = -1.85
Klra4 (killer cell lectin-like receptor, subfamily A, member 4) → combined z-score class = no change with or without drug; viability z-score with doxorubicin = 0.9; viability z-score without drug = 0.17
Zbtb18 (zinc finger and BTB domain containing 18) → combined z-score class = no change with or without drug; viability z-score with doxorubicin = 0.34; viability z-score without drug = 0.84
Tbr1 (T-box brain transcription factor 1) → combined z-score class = no change with or without drug; viability z-score with doxorubicin = -0.45; viability z-score without drug = 1.69
Fbxo25 (F-box protein 25) → combined z-score class = no change with or without drug; viability z-score with doxorubicin = 1.69; viability z-score without drug = 1.85
Or4c12b (olfactory receptor family 4 subfamily C member 12B) → combined z-score class = low cell count without drug only; viability z-score with doxorubicin = -0.9; viability z-score without drug = -2.02
Fam161b (family with sequence similarity 161, member B) → combined z-score class = no change with or without drug; viability z-score with doxorubicin = 0.34; viability z-score without drug = 1.85
Bfsp1 (beaded filament structural protein 1, in lens-CP94) → combined z-score class = no change with or without drug; viability z-score with doxorubicin = 0; viability z-score without drug = -0.17
Prss48 (serine protease 48) → combined z-score class = no change with or without drug; viability z-score with doxorubicin = 0.22; viability z-score without drug = -0.34
Cavin4 (caveolae associated 4) → combined z-score class = high cell count without drug only; viability z-score with doxorubicin = 1.35; viability z-score without drug = 2.53
Mylk2 (myosin, light polypeptide kinase 2, skeletal muscle) → combined z-score class = no change with or without drug; viability z-score with doxorubicin = 0.67; viability z-score without drug = -0.17
Galnt13 (polypeptide N-acetylgalactosaminyltransferase 13) → combined z-score class = no change with or without drug; viability z-score with doxorubicin = 0; viability z-score without drug = 0.17
Abca5 (ATP-binding cassette, sub-family A member 5) → combined z-score class = no change with or without drug; viability z-score with doxorubicin = 1.12; viability z-score without drug = 0.67
Pcgf6 (polycomb group ring finger 6) → combined z-score class = no change with or without drug; viability z-score with doxorubicin = -1.12; viability z-score without drug = 0.17
Gbp2b (guanylate binding protein 2b) → combined z-score class = no change with or without drug; viability z-score with doxorubicin = 0.22; viability z-score without drug = -0.51
Tut1 (terminal uridylyl transferase 1, U6 snRNA-specific) → combined z-score class = no change with or without drug; viability z-score with doxorubicin = -0.11; viability z-score without drug = 1.18
Bora (bora, aurora kinase A activator) → combined z-score class = low cell count with doxorubicin only (active); viability z-score with doxorubicin = -2.02; viability z-score without drug = -1.85
